Results from patent publication EP4559466A1, “MICROBIOTA SIGNATURE TO DETECT FOOD ADDICTION AND TREATMENT THEREOF” (Universitat Pompeu Fabra (UPF), priority 2023, dated 2025).

Test system: C57BI/6J mice
Assay: Mouse food addiction operant protocol with prebiotics in drinking water
Assay type: in vivo
Settings: principal component analysis, position relative to nonaddicted control mice
Protocol: Mice were trained to obtain chocolate-flavored pellets (n=59) in operant boxes during 98 sessions in 1 h-daily self-administration sessions. […] The food addiction-like behavior was evaluated during this operant conditioning maintained by food at a late period (82-92 sessions) to classify mice into the addictive phenotype considering three food addiction-like criteria (1) persistence of response, (2) motivation, and (3) compulsivity. […]
Additionally, four additional phenotypic traits were also evaluated as factors of vulnerability, impulsivity, cognitive inflexibility, appetitive and aversive cue-reactivity. • Impulsivity, the inability to stop a response once it is initiated, was measured as the number of non-reinforced active responses during the time-out period (10 s) after each pellet delivery. […] To signal the change in the schedule, the cue light was presented twice non-contingently and for 4 s. • Aversive cue-reactivity: To study the conditioning to an aversive stimulus (grid floor), non-reinforced active responses during the following session after the shock test were measured. […]

Compound	PCA clustering of addiction criteria and phenotypic traits
C[C@@H]1OC(O)[C@H](O)[C@H](O)[C@H]1O (stereo partly drawn) [rhamnose, (3R,4R,5R,6S)-6-methyloxane-2,3,4,5-tetrol]	clustered together with the nonaddicted control mice
OC[C@H]1O[C@@H](O[C@@H]2[C@@H](CO)OC(O)(CO)[C@H]2O)[C@H](O)[C@@H](O)[C@H]1O (stereo partly drawn) [lactulose, 4-O-β-D-galactopyranosyl-D-fructofuranose, reference compound]	cluster close to the nonaddicted control mice
